From patent publication US20250283871A1, “COMPOSITIONS AND METHODS FOR MODULATING THE INTERACTION BETWEEN SS18-SSX FUSION ONCOPROTEIN AND NUCLEOSOMES” (Dana-Farber Cancer Institute, Inc., priority 2020, published 2025)

B1: UTP4 (protein, UniProt Q969X6 1-686, looked up)
U3 small nucleolar …: MGEFKVHRVRFFNYVPSGIRCVAYNNQSNRLAVSRTDGTVEIYNLSANYFQEKFFPGHESRATEALCWAEGQRLFSAGLNGEIMEYDLQALNIKYAMDAFGGPIWSMAASPSGSQLLVGCEDGSVKLFQITPDKIQFERNFDRQKSRILSLSWHPSGTHIAAGSIDYISVFDVKSGSAVHKMIVDRQYMGVSKRKCIVWGVAFLSDGTIISVDSAGKVQFWDSATGTLVKSHLIANADVQSIAVADQEDSFVVGTAEGTVFHFQLVPVTSNSSEKQWVRTKPFQHHTHDVRTVAHSPTALISGGTDTHLVFRPLMEKVEVKNYDAALRKITFPHRCLISCSKKRQLLLFQFAHHLELWRLGSTVATGKNGDTLPLSKNADHLLHLKTKGPENIICSCISPCGSWIAYSTVSRFFLYRLNYEHDNISLKRVSKMPAFLRSALQILFSEDSTKLFVASNQGALHIVQLSGGSFKHLHAFQPQSGTVEAMCLLAVSPDGNWLAASGTSAGVHVYNVKQLKLHCTVPAYNFPVTAMAIAPNTNNLVIAHSDQQVFEYSIPDKQYTDWSRTVQKQGFHHLWLQRDTPITHISFHPKRPMHILLHDAYMFCIIDKSLPLPNDKTLLYNPFPPTNESDVIRRRTAHAFKISKIYKPLLFMDLLDERTLVAVERPLDDIIAQLPPPIKKKKFGT
B2: NUP160 (protein, UniProt Q12769 1-1436, looked up)
Nuclear pore complex protein …: MLHLSAAPPAPPPEVTATARPCLCSVGRRGDGGKMAAAGALERSFVELSGAERERPRHFREFTVCSIGTANAVAGAVKYSESAGGFYYVESGKLFSVTRNRFIHWKTSGDTLELMEESLDINLLNNAIRLKFQNCSVLPGGVYVSETQNRVIILMLTNQTVHRLLLPHPSRMYRSELVVDSQMQSIFTDIGKVDFTDPCNYQLIPAVPGISPNSTASTAWLSSDGEALFALPCASGGIFVLKLPPYDIPGMVSVVELKQSSVMQRLLTGWMPTAIRGDQSPSDRPLSLAVHCVEHDAFIFALCQDHKLRMWSYKEQMCLMVADMLEYVPVKKDLRLTAGTGHKLRLAYSPTMGLYLGIYMHAPKRGQFCIFQLVSTESNRYSLDHISSLFTSQETLIDFALTSTDIWALWHDAENQTVVKYINFEHNVAGQWNPVFMQPLPEEEIVIRDDQDPREMYLQSLFTPGQFTNEALCKALQIFCRGTERNLDLSWSELKKEVTLAVENELQGSVTEYEFSQEEFRNLQQEFWCKFYACCLQYQEALSHPLALHLNPHTNMVCLLKKGYLSFLIPSSLVDHLYLLPYENLLTEDETTISDDVDIARDVICLIKCLRLIEESVTVDMSVIMEMSCYNLQSPEKAAEQILEDMITIDVENVMEDICSKLQEIRNPIHAIGLLIREMDYETEVEMEKGFNPAQPLNIRMNLTQLYGSNTAGYIVCRGVHKIASTRFLICRDLLILQQLLMRLGDAVIWGTGQLFQAQQDLLHRTAPLLLSYYLIKWGSECLATDVPLDTLESNLQHLSVLELTDSGALMANRFVSSPQTIVELFFQEVARKHIISHLFSQPKAPLSQTGLNWPEMITAITSYLLQLLWPSNPGCLFLECLMGNCQYVQLQDYIQLLHPWCQVNVGSCRFMLGRCYLVTGEGQKALECFCQAASEVGKEEFLDRLIRSEDGEIVSTPRLQYYDKVLRLLDVIGLPELVIQLATSAITEAGDDWKSQATLRTCIFKHHLDLGHNSQAYEALTQIPDSSRQLDCLRQLVVVLCERSQLQDLVEFPYVNLHNEVVGIIESRARAVDLMTHNYYELLYAFHIYRHNYRKAGTVMFEYGMRLGREVRTLRGLEKQGNCYLAALNCLRLIRPEYAWIVQPVSGAVYDRPGASPKRNHDGECTAAPTNRQIEILELEDLEKECSLARIRLTLAQHDPSAVAVAGSSSAEEMVTLLVQAGLFDTAISLCQTFKLPLTPVFEGLAFKCIKLQFGGEAAQAEAWAWLAANQLSSVITTKESSATDEAWRLLSTYLERYKVQNNLYHHCVINKLLSHGVPLPNWLINSYKKVDAAELLRLYLNYDLLEEAVDLVSEYVDAVLGKGHQYFGIEFPLSATAPMVWLPYSSIDQLLQALGENSANSHNIALSQKILDKLEDYQQKVDKATRDLLYRRTL
B3: NUP133 (protein, UniProt Q8WUM0 1-1156, looked up)
Nuclear pore complex protein …: MFPAAPSPRTPGTGSRRGPLAGLGPGSTPRTASRKGLPLGSAVSSPVLFSPVGRRSSLSSRGTPTRMFPHHSITESVNYDVKTFGSSLPVKVMEALTLAEVDDQLTINIDEGGWACLVCKEKLIIWKIALSPITKLSVCKELQLPPSDFHWSADLVALSYSSPSGEAHSTQAVAVMVATREGSIRYWPSLAGEDTYTEAFVDSGGDKTYSFLTAVQGGSFILSSSGSQLIRLIPESSGKIHQHILPQGQGMLSGIGRKVSSLFGILSPSSDLTLSSVLWDRERSSFYSLTSSNISKWELDDSSEKHAYSWDINRALKENITDAIWGSESNYEAIKEGVNIRYLDLKQNCDGLVILAAAWHSADNPCLIYYSLITIEDNGCQMSDAVTVEVTQYNPPFQSEDLILCQLTVPNFSNQTAYLYNESAVYVCSTGTGKFSLPQEKIVFNAQGDSVLGAGACGGVPIIFSRNSGLVSITSRENVSILAEDLEGSLASSVAGPNSESMIFETTTKNETIAQEDKIKLLKAAFLQYCRKDLGHAQMVVDELFSSHSDLDSDSELDRAVTQISVDLMDDYPASDPRWAESVPEEAPGFSNTSLIILHQLEDKMKAHSFLMDFIHQVGLFGRLGSFPVRGTPMATRLLLCEHAEKLSAAIVLKNHHSRLSDLVNTAILIALNKREYEIPSNLTPADVFFREVSQVDTICECLLEHEEQVLRDAPMDSIEWAEVVINVNNILKDMLQAASHYRQNRNSLYRREESLEKEPEYVPWTATSGPGGIRTVIIRQHEIVLKVAYPQADSNLRNIVTEQLVALIDCFLDGYVSQLKSVDKSSNRERYDNLEMEYLQKRSDLLSPLLSLGQYLWAASLAEKYCDFDILVQMCEQTDNQSRLQRYMTQFADQNFSDFLFRWYLEKGKRGKLLSQPISQHGQLANFLQAHEHLSWLHEINSQELEKAHATLLGLANMETRYFAKKKTLLGLSKLAALASDFSEDMLQEKIEEMAEQERFLLHQETLPEQLLAEKQLNLSAMPVLTAPQLIGLYICEENRRANEYDFKKALDLLEYIDEEEDININDLKLEILCKALQRDNWSSSDGKDDPIEVSKDSIFVKILQKLLKDGIQLSEYLPEVKDLLQADQLGSLKSNPYFEFVLKANYEYYVQGQI
B4: RRP1B (protein, UniProt Q14684 1-758, looked up)
Ribosomal RNA processing …: MAPAMQPAEIQFAQRLASSEKGIRDRAVKKLRQYISVKTQRETGGFSQEELLKIWKGLFYCMWVQDEPLLQEELANTIAQLVHAVNNSAAQHLFIQTFWQTMNREWKGIDRLRLDKYYMLIRLVLRQSFEVLKRNGWEESRIKVFLDVLMKEVLCPESQSPNGVRFHFIDIYLDELSKVGGKELLADQNLKFIDPFCKIAAKTKDHTLVQTIARGVFEAIVDQSPFVPEETMEEQKTKVGDGDLSAEEIPENEVSLRRAVSKKKTALGKNHSRKDGLSDERGRDDCGTFEDTGPLLQFDYKAVADRLLEMTSRKNTPHFNRKRLSKLIKKFQDLSEGSSISQLSFAEDISADEDDQILSQGKHKKKGNKLLEKTNLEKEKGSRVFCVEEEDSESSLQKRRRKKKKKHHLQPENPGPGGAAPSLEQNRGREPEASGLKALKARVAEPGAEATSSTGEESGSEHPPAVPMHNKRKRPRKKSPRAHREMLESAVLPPEDMSQSGPSGSHPQGPRGSPTGGAQLLKRKRKLGVVPVNGSGLSTPAWPPLQQEGPPTGPAEGANSHTTLPQRRRLQKKKAGPGSLELCGLPSQKTASLKKRKKMRVMSNLVEHNGVLESEAGQPQALGSSGTCSSLKKQKLRAESDFVKFDTPFLPKPLFFRRAKSSTATHPPGPAVQLNKTPSSSKKVTFGLNRNMTAEFKKTDKSILVSPTGPSRVAFDPEQKPLHGVLKTPTSSPASSPLVAKKPLTTTPRRRPRAMDFF
B5: ZNF644 (protein, UniProt Q9H582 1-1327, looked up)
Zinc finger protein 644: MRSFLQQDVNKTKSRLNVLNGLANNMDDLKINTDITGAKEELLDDNNFISDKESGVHKPKDCQTSFQKNNTLTLPEELSKDKSENALSGGQSSLFIHAGAPTVSSENFILPKGAAVNGPVSHSSLTKTSNMNKGSVSLTTGQPVDQPTTESCSTLKVAADLQLSTPQKASQHQVLFLLSDVAHAKNPTHSNKKLPTSASVGCDIQNSVGSNIKSDGTLINQVEVGEDGEDLLVKDDCVNTVTGISSGTDGFRSENDTNWDPQKEFIQFLMTNEETVDKAPPHSKIGLEKKRKRKMDVSKITRYTEDCFSDSNCVPNKSKMQEVDFLEQNEELQAVDSQKYALSKVKPESTDEDLESVDAFQHLIYNPDKCGEESSPVHTSTFLSNTLKKKCEESDSESPATFSTEEPSFYPCTKCNVNFREKKHLHRHMMYHLDGNSHFRHLNVPRPYACRECGRTFRDRNSLLKHMIIHQERRQKLMEEIRELKELQDEGRSARLQCPQCVFGTNCPKTFVQHAKTHEKDKRYYCCEECNFMAVTENELECHRGIAHGAVVKCPMVTSDIAQRKTQKKTFMKDSVVGSSKKSATYICKMCPFTTSAKSVLKKHTEYLHSSSCVDSFGSPLGLDKRKNDILEEPVDSDSTKTLTKQQSTTFPKNSALKQDVKRTFGSTSQSSSFSKIHKRPHRIQKARKSIAQSGVNMCNQNSSPHKNVTIKSSVDQKPKYFHQAAKEKSNAKANSHYLYRHKYENYRMIKKSGESYPVHFKKEEASSLNSLHLFSSSSNSHNNFISDPHKPDAKRPESFKDHRRVAVKRVIKESKKESSVGGEDLDSYPDFLHKMTVVVLQKLNSAEKKDSYETEDESSWDNVELGDYTTQAIEDETYSDINQEHVNLFPLFKSKVEGQEPGENATLSYDQNDGFYFEYYEDTGSNNFLHEIHDPQHLETADASLSKHSSVFHWTDLSLEKKSCPYCPATFETGVGLSNHVRGHLHRAGLSYEARHVVSPEQIATSDKMQHFKRTGTGTPVKRVRKAIEKSETTSEHTCQLCGGWFDTKIGLSNHVRGHLKRLGKTKWDAHKSPICVLNEMMQNEEKYEKILKALNSRRIIPRPFVAQKLASSDDFISQNVIPLEAYRNGLKTEALSVSASEEEGLNFLNEYDETKPELPSGKKNQSLTLIELLKNKRMGEERNSAISPQKIHNQTARKRFVQKCVLPLNEDSPLMYQPQKMDLTMHSALDCKQKKSRSRSGSKKKMLTLPHGADEVYILRCRFCGLVFRGPLSVQEDWIKHLQRHIVNANLPRTGAGMVEVTSLLKKPASITETSFSLLMAEAAS

Tested on: BAF complex subunits and histone proteins
Assay: Mass spectrometry proteomics of purified HA-SS18 WT and HA-SS18-SSX1 complexes (Tables 5A-5E)
Parameters: species or system human
[1] = HA-SS18SSX1_CHR_peptides: protein identified in the HA-SS18-SSX1 purification from solubilized chromatin (CHR), HEK-293T
[2] = HA-SS18SSX1_NE_peptides: protein co-purified with HA-SS18-SSX1 BAF complexes from soluble nuclear extract (NE), HEK-293T cells
[3] = HA-SS18WT_CHR_peptides: HA-SS18 WT purification from nuclease-treated solubilized chromatin (CHR), HEK-293T, label = protein identified
[4] = HA-SS18WT_NE_peptides: proteins co-purified with HA-SS18 WT from nuclear extract (NE), HEK-293T
[5] = HA-SS18SSX1 purification, NE (soluble nuclear extract) fraction, HEK-293T, peptides per identified protein
[6] = HA-SS18WT_NE_peptides: HA-SS18 WT complexes purified from nuclear extract (NE), HEK-293T, label = protein identified (Gene Symbol)
[7] = HA-SS18WT_CHR_peptides: protein identified in HA-SS18 WT BAF complex purification from nuclease-treated solubilized chromatin (CHR), HEK-293T

| Molecule | Total (total peptides) [1] | Unique (unique peptides) [1] | Total (peptides) [2] | Unique (peptides) [2] | Total (peptides) [3] | Unique (peptides) [3] | Total (peptides) [4] | Unique (peptides) [4] | Total (total peptides) [5] | Unique (unique peptides) [5] | Total (peptides) [6] | Unique (peptides) [6] | Total (total peptides) [7] | Unique (unique peptides) [7] |
| --- | --- | --- | --- | --- | --- | --- | --- | --- | --- | --- | --- | --- | --- | --- |
| B1 | 5 | 5 | 1 | 1 | 3 | 3 | 2 | 2 | – | – | – | – | – | – |
| B2 | 5 | 5 | – | – | 4 | 3 | – | – | 9 | 8 | 10 | 10 | – | – |
| B3 | 5 | 5 | – | – | – | – | – | – | – | – | – | – | 2 | 2 |
| B4 | 5 | 5 | – | – | – | – | – | – | 4 | 4 | 3 | 3 | – | – |
| B5 | 5 | 5 | – | – | 4 | 4 | – | – | – | – | – | – | – | – |
